This note sets out measurements from patent publication US5312812A (Richter Gedeon Vegyeszeti Gyar Rt., priority 1990, dated 1994).

HELM strings list residues between dots; [ac] is acetyl, [am] amide, other brackets name non-standard units.

This data set is described as follows: general procedure: solution-phase peptide synthesis; pentafluorophenyl (OPfp) active esters. Particulars: treated with Dowex 2x8 anion exchange resin of acetate cycle.

Take “PEPTIDE1{[Glp].E.D.[Cys(Acm)].K}$$$$V2.0”: the step yield is reported as 51.4% (late stage modification step, run 1) and 58.8% (late stage modification step, run 2). As for PEPTIDE1{E.D.[Cys(Acm)].K}$$$$V2.0, the step yield (late stage modification step) came out at 40.0%. Glu-Asp-Cys-Lys gave a step yield (coupling step) of 81.3%.
